Reference: PubChem BioAssay AID1671190 (National Center for Advancing Translational Sciences (NCATS), 2021)
Several values for one entry are separate records, joined by “and”; a condition that tells them apart may be missing. Identical values can stand only once. The campaign covered roughly 580,000 compounds. About 6,100 (1.1%) were called active. Inconclusive results, whose numbers are uncertain, are shown with a selection of clear calls. Calls follow the shape of the dose curve; as a rule, active = well fitted inhibition curve with a large enough effect; inconclusive = small, poorly fitted or top-dose-only effect, or another doubt; inactive = no such curve, though single readings can be large or run the other way. Potencies of inconclusive entries are doubtful fits and often do not repeat.

Amino acid sequences for entries named in this document (tags omitted). A change or cut given only in a name is not applied to a line headed by its entry.
UniProt P18054: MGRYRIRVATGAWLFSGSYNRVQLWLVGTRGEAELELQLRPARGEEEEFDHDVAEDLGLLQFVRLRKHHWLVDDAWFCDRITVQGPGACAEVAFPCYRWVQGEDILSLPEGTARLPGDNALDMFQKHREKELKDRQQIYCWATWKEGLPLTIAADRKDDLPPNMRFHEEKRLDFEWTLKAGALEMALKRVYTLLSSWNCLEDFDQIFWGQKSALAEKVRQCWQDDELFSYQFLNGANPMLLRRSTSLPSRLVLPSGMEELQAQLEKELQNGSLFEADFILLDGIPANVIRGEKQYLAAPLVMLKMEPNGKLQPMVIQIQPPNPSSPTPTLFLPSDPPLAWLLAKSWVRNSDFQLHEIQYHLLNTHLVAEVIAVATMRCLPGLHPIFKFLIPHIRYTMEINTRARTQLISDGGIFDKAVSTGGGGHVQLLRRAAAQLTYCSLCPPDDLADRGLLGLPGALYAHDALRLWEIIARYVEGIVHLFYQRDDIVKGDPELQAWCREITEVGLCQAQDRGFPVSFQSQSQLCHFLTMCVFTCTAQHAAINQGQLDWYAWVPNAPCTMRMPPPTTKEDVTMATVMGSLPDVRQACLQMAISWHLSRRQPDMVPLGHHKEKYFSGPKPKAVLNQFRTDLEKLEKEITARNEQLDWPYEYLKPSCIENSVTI

biological target: Polyunsaturated fatty acid lipoxygenase ALOX12 (Homo sapiens) (UniProt P18054); test: Primary qHTS assay for inhibitors of human arachidonate 12S-lipoxygenase (ALOX12): Round 2; conditions: purified 12hLO, xylenol orange hydroperoxide absorbance; activity change, negative = inhibition: at 108 µM (top of the series) unless noted
How it was run: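 Purified human 12hLO (150 nM final) in 25 mM Hepes, 0.01% Triton X-100, pH 7.0 was preincubated 15 min at room temperature with compound. Then 40 uM arachidonic acid was added, 30 min. Hydroperoxide was read by Fe-XO absorbance ratio 573/405 nm.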
% is scaled to controls: 0 for no effect and ±100 for the full control effect; potency is read from the fitted curve at half-maximal effect.

| Structure (SMILES) | Potency | activity change, negative = inhibition |
| --- | --- | --- |
| Cc1c(C(C)(C)C)sc(=NC(=O)c2ccccc2O)n1C | inactive | – |
| CC(=O)CSc1nc2c(c(=O)[nH]c(=O)n2C)n1Cc1cccc(Br)c1 | inconclusive: 50.1 µM [inhibitor, partial curve, poor fit] | – |
| COc1ccc(Nc2nc(NCC(C)O)nc3c2cnn3-c2ccccc2)cc1 (stereo unspecified) | inactive | – |
| COc1ccc(C)cc1-n1c(-c2ccc(Cl)cc2)cc2c1CC(C)(C)CC2=O | inconclusive: 100 µM [inhibitor, partial curve, poor fit] | – |
| O=C(c1ccncc1)N1CCN(c2cccc(C(F)(F)F)c2)CC1 | inactive | – |
| CC1(C)C2CCC1(C)C(OCC[N+](C)(C)CC#N)C2 (stereo unspecified) | inactive | – |
| COc1ccc(N2CCN(C(CNS(=O)(=O)c3ccc(OC)c(C)c3)c3ccco3)CC2)cc1 (stereo unspecified) | inactive | – |
| COc1ccccc1C(=O)COC(=O)C(CCSC)NC(=O)COc1ccccc1 (stereo unspecified) | inconclusive: 44.7 µM [inhibitor, full curve, poor fit] | – |
| Cc1noc2ncnc(N3CCN(c4cccc(C(F)(F)F)c4)CC3)c12 | inactive | – |
| CC1CN(C(=O)c2cc3cc(Br)ccc3[nH]2)CC(C)O1 (stereo unspecified) | inconclusive: 31.6 µM [inhibitor, partial curve, poor fit] | – |
| O=C(CCN1CCCCC1)Nc1cccc(Cl)c1 | inactive | – |
| Nc1c(C(=O)Nc2ccccc2Br)sc2nc(-c3cccs3)ccc12 | inactive | – |
| COc1ccc(C2CCCCCN2C(=O)Cn2cnc3ccc(F)cc3c2=O)cc1 (stereo unspecified) | inactive | – |
| Cc1ccc(C(=O)/C=C/c2cccc(/C=C/C(=O)c3ccc(C)o3)c2)o1 | inconclusive: 7.94 µM [inhibitor, partial curve, poor fit] | – |
| COc1ccc(C(=O)Nc2oc(-c3ccccc3)c(-c3ccccc3)c2C#N)cc1 | inactive | – |
| CCOc1ccc2nc(NC(=O)c3nn(C(C)C)c(=O)c4ccccc34)sc2c1 | inactive | – |
| CCN(CC)Cc1cnc2c(C(=O)N(C)Cc3csc(C)n3)cnn2c1 | inactive | – |
| Cc1nn(C)c(C)c1CNCc1ccc(N2CCOCC2)nc1 | inconclusive: 10 µM [inhibitor, full curve] | – |
| COc1ccc(OC)c(CN2CCC(C(=O)N3CCOCC3)CC2)c1 | inconclusive: 0.447 µM [inhibitor, full curve, poor fit] | – |
| CC1CCc2c(nc3ncnn3c2NCCc2ccccc2F)C1 (stereo unspecified) | inactive | – |
| COc1ccc(CCNC(=O)CSc2nc(-c3ccc(OC)c(OC)c3)ccc2C#N)cc1 | inconclusive: 39.8 µM [inhibitor, partial curve, poor fit] | – |
| CC(=O)NC(Cc1ccc(C(C)C)cc1)C(=O)NC1CCN(c2nc(C)cc(C)n2)CC1 (stereo unspecified) | inconclusive: 5.01 µM [inhibitor, full curve, poor fit] | – |
| CC(C)N(Cc1ccccc1)C(=O)c1nc(-c2ccc(Cl)cc2)n2c1CCCCC2 | – | inconclusive: -33.4% [inhibitor] |

| Structure (SMILES) | Potency | activity change, negative = inhibition |
| --- | --- | --- |
| COC(=O)c1cc(C(=O)OC)cc(-c2ccc(C=O)o2)c1 | inactive | – |
| CN(Cc1ccccc1)C(=O)c1oc(=O)c2ccccc2c1-c1ccccc1 | inactive | – |
| Cc1ccccc1NC(=S)NNC(=O)c1cccnc1 | inconclusive: 89.1 µM [inhibitor, partial curve, poor fit] | – |
| Cc1ccc2nc(-c3ccc(C)s3)cc(C(=O)NCc3ccccn3)c2c1 | inconclusive: 44.7 µM [inhibitor, partial curve, poor fit] | – |
| COc1cc(CN2CCN(Cc3ccc(C)cc3)CC2)cc(OC)c1 | active: 0.501 µM | – |
| c1ccc2nc(C3=NCCN3)cnc2c1 | inconclusive: 39.8 µM [inhibitor, partial curve, poor fit] | – |
| Cc1ccc2nc3c(cc(C(=O)NCC4CCCO4)c(=N)n3C3CCCC3)c(=O)n2c1 (stereo unspecified) | inconclusive: 70.8 µM [inhibitor, partial curve, poor fit] | – |
| CC1c2cc3c(cc2CCN1CC(=O)Nc1ccc(S(=O)(=O)N2CCCC2)cc1)OCCCO3 (stereo unspecified) | inactive | – |
| Cc1ccc(C)c(NC(=S)NNC(=O)c2csc3c2CCCC3)c1 | inconclusive: 44.7 µM [inhibitor, partial curve, poor fit] | – |
| CCCCNc1c(-c2ccc(SC3CCCCC3)cc2)nc2cnccn12 | inconclusive: 50.1 µM [inhibitor, partial curve, poor fit] and inconclusive: 39.8 µM [inhibitor, partial curve, poor fit] | – |
| O=C(CCCN1C(=O)/C(=C/c2cccc(Br)c2)SC1=S)N1CCOCC1 | inconclusive: 100 µM [inhibitor, single point] | – |
| CC(C)(C)c1ccccc1NC(=S)NCc1ccccc1 | inconclusive: 50.1 µM [inhibitor, partial curve] | – |
| CC(C)C(=O)NN=C(c1ccccc1)c1ccccc1 | inactive | – |
| CC(C)c1ccc(N(CC(=O)NC2CCCC2)C(=O)CCC(=O)Nc2nccs2)cc1 | inconclusive: 22.4 µM [inhibitor, partial curve, poor fit] | – |
| Nc1ccc2oc(-c3ccccc3)cc2c1 | inconclusive: 63.1 µM [inhibitor, partial curve, poor fit] | – |
| CCOC(=O)c1sc(N)nc1C(C)C | inactive | – |
| O=C(CN1CCC(NC(=O)c2ccco2)CC1)Nc1ccccc1C(F)(F)F | inactive | – |
| CCOC(=O)c1cnc2c(ccc3ccccc32)c1Nc1ccc(N(C)C)cc1 | inconclusive: 3.55 µM [inhibitor, full curve, poor fit] | – |
| CN(C)CCSc1nc(N2CCOCC2)c2c(c1C#N)CCCC2 | inconclusive: 3.98 µM [inhibitor, full curve, poor fit] | – |
| Cc1ccc[n+](CC(=O)Nc2cc(C(F)(F)F)ccc2Cl)c1 | inactive | – |
| O=C(COc1ccc(S(=O)(=O)N2CCCC2)cc1Cl)NCc1ccc2c(c1)OCO2 | inconclusive: 31.6 µM [inhibitor, partial curve] | – |
| Cc1ccc(C2=NNC(C(O)C(O)C(O)C(C)O)S2)cc1 (stereo unspecified) | inconclusive: 56.2 µM [inhibitor, partial curve, poor fit] | – |
| CCN(CC)C(=S)SCC(=O)c1ccc(OC)cc1 | inconclusive: 44.7 µM [inhibitor, partial curve, poor fit] | – |
